Results deposited as PubChem BioAssay AID1259254 (NCATS, 2017)
Screen: 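Gene knock-downs that lead to re-replication, shown by excess G2 DNA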 (primary screen). Cells: human HCT116 colorectal cancer cells. Reagents: single siRNA against human genes. Timing: 3 days. Detection: 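Imaged Hoechst DNA stain sorts each cell into a cycle phase by DNA amount; per plate, G2 fraction set to 0% for non-targeting and 100% for GMNN siRNA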. Reading the numbers: G2 robust z-score and G2 cells, % of GMNN control: higher = more G2 cells, more excess DNA replication; raw share of cells in G2: higher = larger share of cells with G2 DNA content. Call rule: 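An siRNA counts as active if its G2 robust z-score lies at least 5 MADs above the screen median; here such calls match roughly 38% of GMNN control or more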.
The whole screen tested about 59,000 reagents; this is an unselected part. Over the whole deposit, about 1,550 (2.6%) are marked active. 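G2 share is only a proxy for re-replication; each gene was hit by three separate siRNAs, and active genes were retested.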 The raw values are shown without normalisation. Unmarked entries are inactive. Reagents against one gene are numbered here. Not stated in the record: the amount of reagent.

| target gene | reagent | G2 robust z-score | G2 cells, % of GMNN control | raw share of cells in G2 (%) |
| --- | --- | --- | --- | --- |
| CLEC16A (C-type lectin domain containing 16A) | 1 | -0.76 | -2.38 | 3.52 |
| CLEC16A (C-type lectin domain containing 16A) | 2 | 0.185 | 4.27 | 5.79 |
| CLEC16A (C-type lectin domain containing 16A) | 3 | 0.317 | 5.19 | 5.11 |
| ATG14 (autophagy related 14) | 1 | -1.6 | -8.31 | 1.73 |
| ATG14 (autophagy related 14) | 2 | -0.34 | 0.576 | 4.37 |
| ATG14 (autophagy related 14) | 3 | -0.34 | 0.573 | 3.39 |
| CIDEB (cell death inducing DFFA like effector b) | 1 | -0.14 | 1.99 | 4.61 |
| CIDEB (cell death inducing DFFA like effector b) | 2 | 1.02 | 10.2 | 8.39 |
| CIDEB (cell death inducing DFFA like effector b) | 3 | 0.715 | 8 | 5.78 |
| GARIN5A (golgi associated RAB2 interactor 5A) | 1 | 1.48 | 13.4 | 9.46 |
| GARIN5A (golgi associated RAB2 interactor 5A) | 2 | -0.156 | 1.87 | 3.89 |
| GARIN5A (golgi associated RAB2 interactor 5A) | 3 | -0.381 | 0.283 | 1.9 |
| PLXNA2 (plexin A2) | 1 | -0.72 | -2.1 | 4.91 |
| PLXNA2 (plexin A2) | 2 | -1.22 | -5.64 | 3.51 |
| PLXNA2 (plexin A2) | 3 | 0.509 | 6.55 | 6.33 |
| GTF2A1 (general transcription factor IIA subunit 1) | 1 | -0.852 | -3.02 | 3.94 |
| GTF2A1 (general transcription factor IIA subunit 1) | 2 | -0.817 | -2.78 | 4.62 |
| GTF2A1 (general transcription factor IIA subunit 1) | 3 | -0.0209 | 2.82 | 5.24 |
| CPO (carboxypeptidase O) | 1 | -0.581 | -1.12 | 5.12 |
| CPO (carboxypeptidase O) | 2 | 1.62 | 14.4 | 9.21 |
| CPO (carboxypeptidase O) | 3 | -0.779 | -2.52 | 3.32 |
| CDH17 (cadherin 17) | 1 | 0.263 | 4.81 | 6.68 |
| CDH17 (cadherin 17) | 2 | -1.07 | -4.53 | 3.34 |
| CDH17 (cadherin 17) | 3 | -0.17 | 1.77 | 4.71 |
| SAMD14 (sterile alpha motif domain containing 14) | 1 | -0.485 | -0.443 | 3.44 |
| SAMD14 (sterile alpha motif domain containing 14) | 2 | 0.262 | 4.81 | 4.57 |
| SAMD14 (sterile alpha motif domain containing 14) | 3 | -0.155 | 1.88 | 3.36 |
| MAP2 (microtubule associated protein 2) | 1 | 3.32 | 26.3 | 11.9 |
| MAP2 (microtubule associated protein 2) | 2 | -0.0899 | 2.34 | 6.26 |
| MAP2 (microtubule associated protein 2) | 3 | 0.359 | 5.49 | 7.65 |

Part of the list above in another layout:
target gene,reagent,G2 robust z-score,"G2 cells, % of GMNN control",raw share of cells in G2 (%)
GARIN5A (golgi associated RAB2 interactor 5A),1,1.48,13.4,9.46
GARIN5A (golgi associated RAB2 interactor 5A),2,-0.156,1.87,3.89
